Drawing on publication PMC6503954, this text covers binding for one substance.

This experiment addresses T1, GFP-tagged aPKCι (UniProt P41743).
T1 sequence: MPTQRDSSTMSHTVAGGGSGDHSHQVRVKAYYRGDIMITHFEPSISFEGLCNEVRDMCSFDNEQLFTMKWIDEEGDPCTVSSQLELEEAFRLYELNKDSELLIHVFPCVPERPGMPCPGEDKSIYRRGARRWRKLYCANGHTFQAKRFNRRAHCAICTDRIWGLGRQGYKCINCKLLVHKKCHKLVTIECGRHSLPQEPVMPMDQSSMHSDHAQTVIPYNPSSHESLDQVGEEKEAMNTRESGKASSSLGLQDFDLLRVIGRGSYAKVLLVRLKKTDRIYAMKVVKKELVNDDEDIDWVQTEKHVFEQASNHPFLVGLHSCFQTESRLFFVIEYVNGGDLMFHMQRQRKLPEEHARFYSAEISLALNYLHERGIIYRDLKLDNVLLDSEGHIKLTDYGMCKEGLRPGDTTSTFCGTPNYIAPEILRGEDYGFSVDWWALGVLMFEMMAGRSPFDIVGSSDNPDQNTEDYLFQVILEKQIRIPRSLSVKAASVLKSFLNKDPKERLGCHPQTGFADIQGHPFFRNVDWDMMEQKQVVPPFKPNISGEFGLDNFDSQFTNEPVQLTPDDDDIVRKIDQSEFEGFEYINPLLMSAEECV
In words: co-IP; HCT116 cells co-transfected; GFP-Trap-M or FLAG-M2 beads, 4°C, 90 min; lysis buffer 20 mM Tris-HCl pH 8, 130 mM NaCl, 1% Triton X-100, 1 mM DTT, 10 mM NaF; some samples with the aPKCι inhibitor CRT0066854.

These are yes or no findings as the source states them, for the method shown. In cells and extracts the contact can be indirect. Binding can be weak; no strength is given. Where a sequence is shown, tags or fusion partners need not be part of it.

For the substance “FARP2 FERM-FA domain (in pCMV6-Entry) (human) (domain or fragment)”, the binding entry is on record as “binds”.
